# “And” between values parts separate entries of the source, which are not always exact repeats. Equal entries are not always repeated. Structures can show the parent of a compound that is named as a salt. ± gives the standard deviation of the averaged measurements. The list shows a part of the results. Plates or batches differ in their baseline, so values are only roughly comparable.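 Primary human stellate myofibroblasts activated in culture; inactivation shown by regained lipid droplets. Readout: fraction of Hoechst-counted cells exceeding a per-plate Bodipy threshold, duplicate wells, each plate with DMSO negative and nortriptyline positive controls. Hits: control-normalized score beyond the plate's top-tenth-percentile nortriptyline wells, or among its three best wells. Final well concentrations unstated.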
# System: primary human hepatic stellate cells (donor 1)
# Assay: percent Bodipy-positive cells; higher = more lipid droplet accumulation
# Settings: 48 h
# [1] = library stock concentration: 10 mM
# [2] = library stock concentration: 3.33 mM
# [3] = library stock concentration: 1 mM
compound,measurement,setting,value
CC(=O)c1ccc2c(c1)N(CCCN1CCN(CCO)CC1)c1ccccc1S2,percent Bodipy-positive cells,[1],76.3 ± 2.7%
Cc1c(CC(C)(C)C(=O)O)n(Cc2ccc(Cl)cc2)c2ccc(F)cc12,percent Bodipy-positive cells,[1],7.36 ± 0.72%
CS(=O)(=O)c1ccc(Cn2c3c(c4cc(F)cc(F)c42)CCCC3CC(=O)O)cc1 (stereo not given),percent Bodipy-positive cells,[1],9.36 ± 2.2%
OC[C@H]1O[C@H](O[C@H]2[C@H](O)[C@@H](O)C(O)O[C@@H]2CO)[C@H](O)[C@@H](O)[C@@H]1O (stereo not given in full),percent Bodipy-positive cells,[1],25.6 ± 1.9%
O=c1cc(CN2CCOCC2)occ1OCCCCCSc1ccnc2cc(C(F)(F)F)ccc12,percent Bodipy-positive cells,[2],42.91 ± 0.35%
same,percent Bodipy-positive cells,[1],69.6 ± 3.8%
O[C@@H]1CO[C@H]2[C@@H]1OC[C@@H]2O [Isosorbide],percent Bodipy-positive cells,[2],15.5 ± 2.8%
same,percent Bodipy-positive cells,[1],27.2 ± 9.1%
COc1ccc(/C=C2\COc3ccc(C)cc3C2=O)cc1O,percent Bodipy-positive cells,[1],41.4 ± 3.8%
"COC1=C(OC)C(=O)c2ccccc2C1=O [2,3-Dimethoxy-1,4-naphthoquinone]",percent Bodipy-positive cells,[1],100%
"CCCCC[C@H](O)CC[C@@H]1[C@@H](CCCCCCC(=O)O)[C@@H](O)C[C@H]1O [13,14-dihydro Prostaglandin F1.alpha.]",percent Bodipy-positive cells,[3],13 ± 4.4%
"CCCCC[C@H](O)/C=C/[C@@H]1[C@H]2C/C=C\CCCC(=O)O[C@H]2C[C@H]1O [Prostaglandin F2.alpha. 1,9-lactone]",percent Bodipy-positive cells,[3],13.1 ± 3.3%
CCOc1ccc(Cc2cc([C@@H]3O[C@H](CO)[C@@H](O)[C@H](O)[C@H]3O)ccc2Cl)cc1 [Dapagliflozin],percent Bodipy-positive cells,[2],7.55 ± 2.6%
same,percent Bodipy-positive cells,[1],7.77 ± 0.61%
CCN(CC)CCNC(=O)c1c(C)[nH]c(/C=C2\C(=O)Nc3ccc(Cl)cc32)c1C,percent Bodipy-positive cells,[2],100%
COc1ccc2cc1Oc1ccc(cc1)C[C@H]1c3c(cc4c(c3Oc3cc5c(cc3OC)CCN(C)[C@@H]5C2)OCO4)CCN1C [Cepharanthine],percent Bodipy-positive cells,[1],93.38 ± 0.91%
CN(C)CCN1C(=O)c2cccc3cc(N)cc(c23)C1=O [Amonafide],percent Bodipy-positive cells,[2],44.4 ± 7.9%
same,percent Bodipy-positive cells,[1],76 ± 2.5%
CC1CCN(c2cc(N3CCN(C)CC3)ccc2NC(=O)c2cc(C#N)c[nH]2)CC1,percent Bodipy-positive cells,library stock concentration: 80 uM,3.57 ± 0.3%
same,percent Bodipy-positive cells,library stock concentration: 400 uM,9.46 ± 7.3%
same,percent Bodipy-positive cells,library stock concentration: 2 mM,17.9 ± 6.2%
CC(C)NCCCn1c(Sc2cc3c(cc2I)OCO3)nc2c(N)ncnc21,percent Bodipy-positive cells,[2],85.5 ± 1.9%
CC(C)CCC[C@@H](C)[C@H]1CC[C@H]2[C@@H]3CC=C4C[C@@H](O)CC[C@]4(C)[C@H]3CC[C@]12C [Cholesterol],percent Bodipy-positive cells,library stock concentration: 5.2 mM,17 ± 4.8%
Nc1ccn([C@@H]2O[C@H](CO)[C@@H](O)[C@H]2O)c(=O)n1 [Cytidine],percent Bodipy-positive cells,[2],15 ± 8.7%
same,percent Bodipy-positive cells,[1],6.16 ± 0.5%
CN(C)CCC(c1ccccc1)c1ccccn1 (stereo not given) [Pheniramine maleate],percent Bodipy-positive cells,,22.2 ± 0.97%
same,percent Bodipy-positive cells,[1],15.6% and 14.5%
CN(C)CCC(c1ccccc1)c1ccccn1 (stereo not given) [Pheniramine Maleate],percent Bodipy-positive cells,[2],17.1 ± 11%
same,percent Bodipy-positive cells,[1],43.8 ± 2.8%
Cc1cccc(Nc2nc(-c3ccncc3)cs2)c1,percent Bodipy-positive cells,[3],16.6 ± 6%
O=[N+]([O-])c1cc(Cl)ccc1S(=O)(=O)N1CCN(Cc2ccccc2)CC1,percent Bodipy-positive cells,[1],13.1 ± 3.4%
CCSc1ccc2c(c1)N(CCCN1CCN(C)CC1)c1ccccc1S2 [Thiethylperazine malate],percent Bodipy-positive cells,,35.5 ± 5.6%
CCCCc1nn(-c2ccccc2C(F)(F)F)c(=O)n1Cc1ccc(-c2ccccc2S(=O)(=O)NC(=O)c2sccc2C)cc1,percent Bodipy-positive cells,[1],9.81 ± 5.3%
Cc1c(O)cccc1C(=O)N[C@@H](CSc1ccccc1)[C@H](O)CN1C[C@H]2CCCC[C@H]2C[C@H]1C(=O)NC(C)(C)C [Nelfinavir mesylate hydrate],percent Bodipy-positive cells,[1],66.8 ± 13%
Cc1c(O)cccc1C(=O)N[C@@H](CSc1ccccc1)[C@H](O)CN1C[C@H]2CCCC[C@H]2C[C@H]1C(=O)NC(C)(C)C,percent Bodipy-positive cells,[1],42.4 ± 12%
Cc1c(O)cccc1C(=O)N[C@@H](CSc1ccccc1)[C@H](O)CN1C[C@H]2CCCC[C@H]2C[C@H]1C(=O)NC(C)(C)C [Nelfinavir Mesylate],percent Bodipy-positive cells,library stock concentration: 3 mM,15.3 ± 3.9%
same,percent Bodipy-positive cells,[2],9.61 ± 1.7%
same,percent Bodipy-positive cells,[1],81 ± 1.7%
COc1cc2nc(N3CCN(C(=O)c4ccco4)CC3)nc(N)c2cc1OC [Prazocin],percent Bodipy-positive cells,library stock concentration: 13 mM,94.9 ± 3.5%
O=C(O)c1cc(O)c(O)c(O)c1 [Gallic acid],percent Bodipy-positive cells,[1],25.4 ± 13%
same,percent Bodipy-positive cells,library stock concentration: 11.8 mM,3.6 ± 0.32%
CCN(CC)C(=O)N1CCN(C)CC1 [Diethylcarbamazine citrate],percent Bodipy-positive cells,,21.6 ± 8.6%
same,percent Bodipy-positive cells,library stock concentration: 5.1 mM,1.26 ± 0.53%
same,percent Bodipy-positive cells,[1],14.7 ± 4.2%
CCCCC#Cc1nc(NC)c2ncn([C@@H]3O[C@H](CO)[C@@H](O)[C@H]3O)c2n1,percent Bodipy-positive cells,[1],33.4% and 11.2%
O=S(=O)(NO)c1ccccc1 [Piloty's Acid],percent Bodipy-positive cells,[3],10.6 ± 2.6%
O=P(O)(O)C(O)(Cc1cccnc1)P(=O)(O)O [Risedronic acid],percent Bodipy-positive cells,library stock concentration: 7.1 mM,4.81 ± 0.081%
Nc1nccc2c1ncn2[C@@H]1O[C@H](CO)[C@@H](O)[C@H]1O [3-deazaadenosine],percent Bodipy-positive cells,[1],45.5 ± 25%
N[C@@H](Cc1ccc(F)cc1)C(=O)O [p-Fluoro-L-phenylalanine],percent Bodipy-positive cells,[1],52 ± 4.8%
O=C(Nc1ccc2[nH]ncc2c1)C1CCC1 [Rhodblock 6],percent Bodipy-positive cells,[1],34.9 ± 1.4%

# An excerpt of these results, with tabs.
compound	measurement	setting	value
CCCCC[C@H](O)/C=C/[C@@H]1[C@H]2C/C=C\CCCC(=O)O[C@H]2C[C@H]1O [Prostaglandin F2.alpha. 1,9-lactone]	percent Bodipy-positive cells	[3]	13.1 ± 3.3%
CCOc1ccc(Cc2cc([C@@H]3O[C@H](CO)[C@@H](O)[C@H](O)[C@H]3O)ccc2Cl)cc1 [Dapagliflozin]	percent Bodipy-positive cells	[2]	7.55 ± 2.6%
same	percent Bodipy-positive cells	[1]	7.77 ± 0.61%
